Assay results reported in PMC10803263, “General transcription factor from Escherichia coli with a distinct mechanism of action” (Nature Structural & Molecular Biology, 2023).

Protein sequences, listed by entry. Tags and fused reporters are not part of them.
UniProt P0AE60: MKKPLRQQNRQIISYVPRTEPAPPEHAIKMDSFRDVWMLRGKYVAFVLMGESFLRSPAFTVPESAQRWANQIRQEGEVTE
UniProt P0A8T7: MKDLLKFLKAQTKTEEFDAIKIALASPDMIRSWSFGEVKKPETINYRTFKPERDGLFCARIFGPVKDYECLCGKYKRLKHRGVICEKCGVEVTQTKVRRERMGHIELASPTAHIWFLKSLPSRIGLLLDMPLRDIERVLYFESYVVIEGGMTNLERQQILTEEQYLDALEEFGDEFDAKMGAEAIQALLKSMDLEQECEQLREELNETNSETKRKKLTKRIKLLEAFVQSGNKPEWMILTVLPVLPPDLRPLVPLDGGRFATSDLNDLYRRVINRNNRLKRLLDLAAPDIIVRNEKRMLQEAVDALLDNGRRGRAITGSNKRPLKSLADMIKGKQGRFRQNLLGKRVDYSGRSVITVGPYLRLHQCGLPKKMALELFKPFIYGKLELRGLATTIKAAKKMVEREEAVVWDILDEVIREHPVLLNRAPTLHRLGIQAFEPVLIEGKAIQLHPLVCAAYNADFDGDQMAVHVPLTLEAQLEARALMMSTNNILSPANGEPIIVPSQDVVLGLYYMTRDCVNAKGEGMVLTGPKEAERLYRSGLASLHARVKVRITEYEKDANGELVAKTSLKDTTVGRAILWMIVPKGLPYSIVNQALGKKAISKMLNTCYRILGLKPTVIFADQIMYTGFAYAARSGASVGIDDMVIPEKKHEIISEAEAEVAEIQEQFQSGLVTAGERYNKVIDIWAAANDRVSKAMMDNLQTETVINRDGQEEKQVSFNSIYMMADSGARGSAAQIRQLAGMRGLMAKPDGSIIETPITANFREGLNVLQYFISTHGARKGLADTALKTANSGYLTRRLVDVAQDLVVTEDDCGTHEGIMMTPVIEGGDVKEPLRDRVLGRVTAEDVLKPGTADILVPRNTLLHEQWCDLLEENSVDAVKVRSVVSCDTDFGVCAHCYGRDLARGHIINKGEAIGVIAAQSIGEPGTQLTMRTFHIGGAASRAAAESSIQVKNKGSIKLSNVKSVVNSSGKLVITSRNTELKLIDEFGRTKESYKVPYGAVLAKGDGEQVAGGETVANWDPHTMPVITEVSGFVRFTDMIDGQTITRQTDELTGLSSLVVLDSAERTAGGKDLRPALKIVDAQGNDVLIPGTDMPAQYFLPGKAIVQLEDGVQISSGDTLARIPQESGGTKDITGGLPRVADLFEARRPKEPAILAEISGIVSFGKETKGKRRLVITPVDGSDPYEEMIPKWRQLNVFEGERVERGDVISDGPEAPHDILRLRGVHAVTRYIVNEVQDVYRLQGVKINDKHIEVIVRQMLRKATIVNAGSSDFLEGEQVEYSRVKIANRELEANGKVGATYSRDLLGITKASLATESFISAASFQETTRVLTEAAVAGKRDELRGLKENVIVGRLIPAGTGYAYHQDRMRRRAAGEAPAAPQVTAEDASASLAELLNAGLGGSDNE

Columns and labels:
[1] = biological target: CedA, chromosomally 3× FLAG-tagged (E. coli (endogenous in MG1655)) (UniProt P0AE60); assay: affinity purification with mass spectrometry; in vivo crosslinking with 0.3% formaldehyde for 10 min; chromosomally 3× FLAG-tagged bait (RpoC or CedA) captured on anti-DYKDDDDK magnetic agarose, washed with 500 mM NaCl, 0.1% Triton X-100; on-beads trypsin digestion, LC-MS; proteins ranked by abundance, specificity (against untagged strain) and enrichment (against lysate), top 2% combined rank, three replicates
[2] = biological target: RNA polymerase β′ subunit (RpoC), chromosomally 3× FLAG-tagged (E. coli (endogenous in MG1655)) (UniProt P0A8T7); assay: as above

B1: stringent starvation protein A (SspA), endogenous (protein, UniProt P0ACA3 1-212)
chain: MAVAANKRSVMTLFSGPTDIYSHQVRIVLAEKGVSFEIEHVEKDNPPQDLIDLNPNQSVPTLVDRELTLWESRIIMEYLDERFPHPPLMPVYPVARGESRLYMHRIEKDWYTLMNTIINGSASEADAARKQLREELLAIAPVFGQKPYFLSDEFSLVDCYLAPLLWRLPQLGIEFSGPGAKELKGYMTRVFERDSFLASLTEAEREMRLGRS
[1]
  binding: binds

B2: sigma factor FecI, endogenous (protein, UniProt P23484 1-173)
chain: MSDRATTTASLTFESLYGTHHGWLKSWLTRKLQSAFDADDIAQDTFLRVMVSETLSTIRDPRSFLCTIAKRVMVDLFRRNALEKAYLEMLALMPEGGAPSPEERESQLETLQLLDSMLDGLNGKTREAFLLSQLDGLTYSEIAHKLGVSISSVKKYVAKAVEHCLLFRLEYGL
[2]
  binding: binds

These are yes or no findings as the source states them, for the method shown. Binding seen in cells or lysates may run through a third protein. A yes stands for co-enrichment or nearness to the bait. Other partners may have been found.
